Measured values taken from PubChem BioAssay AID493014 (National Center for Advancing Translational Sciences (NCATS), 2011).
The other results are listed elsewhere or left out. The main result of the screen is listed elsewhere. These columns were measured beside it and carry no call. The list favours compounds with an active or inconclusive main result. The note in brackets gives the kind of curve behind each potency; many fits are weak.

Experiment: qHTS Assay to Find Inhibitors of Chronic Active B-Cell Receptor Signaling
Conditions: ABC-DLBCL IkBa-CBG/CBR reporter, luminescence ratio (green luciferase fused to IkBa over red control in TMD8 lymphoma cells), 4 h
Source text: NIH Molecular Libraries Probe Production Network [MLPCN] NIH Chemical Genomics Center [NCGC] MLPCN Grant: 1 R03 DA031086-01A1 PI Name: Dr. R. Eric Davis NCGC Assay Overview: Diffuse large B-cell lymphoma (DLBCL) is the most common category of non-Hodgkin lymphoma, with ~20,000 new cases per year in the United States. DLBCL should be regarded as a collection of different neoplasms. Microarray gene expression analysis has defined two principal types of DLBCL, named for their similarity to normal B cell stages or activation states: a germinal center B-cell (GCB) type, and an activated B-cell (ABC) type. In ABC-DLBCL, a constitutive high-level activity of the NF-kappaB family of transcription factors has been observed (1) and NF-kappaB target genes are more highly expressed in ABC primary tumors than in GCB tumors. Functional studies have shown a constitutive high-level activity of the IkappaB (inhibitor of kappa-B) kinase (IKK) complex. […] Further analysis of DLBCL primary tumors for NF-kappaB target gene expression imply that although CARD11 is required for constitutive IKK activity in all ABC-DLBCL lines, mutations in CARD11 may be the root cause of IKK activation only in lines or tumors with such mutations. In other words, CARD11 mutations may explain NF-kappaB activation in only 10% of ABC-DLBCL cases. […] This process has been termed 'chronic active BCR signaling' (CABS). The goal of this screen is to find small-molecule inhibitors of the CABS pathway found in ABC-DLBCL lines using a cell-based assay that measures IkappaBalpa stability, which has already been extensively validated in the OCI-Ly3 line (PubChem AID:445; REF: 4). […] The assay uses green (CBG68) and red (CBR) emitting beetle luciferases [Chroma-GloTM developed by Promega Corp.] where the green luciferase is fused to IkappaBalpha and the red luciferase is present in its native state. Both luciferase genes are stably present in the TMD8 human ABC DLBCL cell line, but their expression is under the control of tetracycline-inducible promoters. Following the addition of doxycycline to induce expression of the luciferases, the green luminescence in control cultures rises only slowly because the CBG fusion partner IkappaBalpha is targeted by IKK activity for rapid degradation. In contrast, green luminescence rises rapidly in the presence of proteasome inhibitors or IKK inhibitors. The rise in red luminescence of CBR is not affected by proteasome or IKK inhibitors, and serves as normalization for cell number and nonspecific effects. Compounds were screened as a concentration-titration series that ranged from 46 uM to 3 nM.
NCGC Assay Protocol Summary: Cells were seeded in 1536-well plates at 5000 cells/4uL in IMDM medium containing 0.5% FBS, w/o phenol red, 1% penicillin/streptomycin. Then, 23 nL of compounds or DMSO were delivered to each well using a pin tool. One uL 20ng/ml doxycycline was then dispensed into white solid 1536-well plates and the plates were incubated at 37C/5% C02 in a cell incubator for 4 hrs. Then 4 uL luminescent substrate mix (in-house prepared: 150 mM Tris-Cl, pH 7.6, 3 mM MgCl2, 1% Triton X-100, 5 mM DTT, 0.2 mM CoA, 0.15 mM ATP, 5 mM D-luciferin, final concentrations) was added to each well. The plate was incubated at r.t. for 10-15 min. The plates were measured on a ViewLux plate reader for green luminescence (540/20 nm filter) and red luminescence (618/8 nm filter). The green and red luminescent signals were corrected for red and green luminescence filter overlap using previously determined filter calibration constants (determined using the procedure outlined in the Promega Technical Manual; REF 4). The %Activity was determined from the ratio of corrected green/red luminescent values. MG132 were used as control. […] Red luminescent %Activity was normalized to the difference between red luminesence in basal cells (0%Activity) and zero luminescence (-100% Activity). […]

[1] = measured here: CBR red luminescence, cell number
[2] = measured here: IkBa-CBG green luminescence

Row | Structure (SMILES) | AC50 [1] | AC50 [2]
1 | FC(F)(F)c1cc(CCN2C(=S)NC[C@@H]2CC2CCCCC2)cc(C(F)(F)F)c1 | 5.62 µM [rising, single point] | 5.01 µM [falling, single point]
2 | CC(=O)Nc1cccc(NC(=O)Cc2nc(-c3ccccc3)sc2-c2ccc(C)cc2)c1 | 2.91 µM [rising, partial curve] | 
3 | CNC(=O)Cn1nc(-c2ccc(Cl)cc2)c2ccccc2c1=O | 2.51 µM [rising, partial curve] | 
4 | COc1ccnc(CSC(N)=Nc2ccccc2C(F)(F)F)c1 |  | 23.1 µM [falling, partial curve, poor fit]
5 | COc1cc(OC)c(C(=O)NC2CCCCCC2)cc1OC | 6.51 µM [falling, single point] | 6.51 µM [rising, partial curve, poor fit]
6 | COC(=O)c1c(-c2ccccc2)csc1NC(=O)c1ccco1 | 1.41 µM [rising, full curve, poor fit] | 
7 | Cc1csc(NC(=O)/C=C/c2ccc3c(c2)OCO3)n1 | 13 µM [falling, partial curve] | 2.91 µM [rising, full curve, poor fit]
8 | CCCSc1nc(=O)n2cccc(C)c2n1 | 13 µM [rising, partial curve] | 20.6 µM [falling, partial curve]
9 | C=CC(=O)N(CCC)C(c1ccccc1)c1ccccc1OC (stereo not drawn) | 7.31 µM [falling, partial curve, poor fit] | 
10 | CCc1ccc(-c2csc(-c3c[nH]c4ccccc34)n2)cc1 | 2.91 µM [rising, partial curve, poor fit] | 
11 | O=C(Nc1nnc(-c2ccco2)o1)c1ccc(Cl)s1 | 12.6 µM [falling, partial curve] | 
12 | Cc1cc(C)c(NS(=O)(=O)c2ccc3c(c2)n(C)c(=O)n3C)c(C)c1 | 7.08 µM [rising, full curve] | 
13 | CCN(CC)CCOc1cccc(C(C)C)c1 | 10.3 µM [rising, partial curve, poor fit] | 
14 | CCC(Sc1nc(=O)cc(N)n1-c1cccc(C)c1)C(=O)Nc1cc(C)on1 (stereo not drawn) | 0.651 µM [falling, full curve, poor fit] | 
15 | Cc1ccc(CNc2ccc([N+](=O)[O-])cc2C(N)=O)cc1 | 18.4 µM [rising, partial curve] | 
16 | O=C(COC(=O)CCCN1C(=O)c2cccc3cccc(c23)C1=O)Nc1ccc(Cl)cc1 | 32.6 µM [rising, partial curve, poor fit] | 
17 | O=C(N/N=C/c1ccc[nH]1)c1ccccc1OCc1ccc(F)cc1 | 17.8 µM [rising, partial curve, poor fit] | 
18 | Cc1cc(C(=O)NN=C(CCC(=O)O)c2cccs2)c(C)o1 | 2.31 µM [falling, partial curve, poor fit] | 
19 | COc1cc(C(=O)OCCn2c(=O)c3c(ncn3CCN(C)C)n(C)c2=O)cc(OC)c1OC | 5.62 µM [rising, full curve] | 
20 | CC1Sc2ccc(S(=O)(=O)N3CCC(C(=O)NCC(C)c4ccccc4)CC3)cc2NC1=O (stereo not drawn) | 35.5 µM [falling, single point] | 
21 | COC(=O)c1[nH]c2ccccc2c1NC(=O)CN1CCN(c2cccc(Cl)c2)CC1 | 35.5 µM [falling, single point] | 

Row | Structure (SMILES) | AC50 [1] | AC50 [2]
22 | O=C(CSc1nnnn1Cc1ccccc1)Nc1cccc(F)c1 | 6.31 µM [rising, full curve] | 
23 | O=C(C(=O)N1CCN(c2ccccc2)CC1)c1cn(CC(=O)N2CCCCCC2)c2ccccc12 | 14.1 µM [falling, single point] | 
24 | Clc1ccc(-c2cnn3c(-c4ccncc4)ccnc23)cc1 | 17.8 µM [rising, partial curve, poor fit] | 
25 | CC(=O)c1cc(C#N)c(SCCC(C)C)nc1C | 9.2 µM [rising, partial curve, poor fit] | 29.1 µM [falling, partial curve, poor fit]
26 | COCCN(CC(=O)Nc1ccccc1C)S(=O)(=O)c1ccc(S(=O)(=O)N2CCCC2)cc1 | 32.6 µM [rising, single point] | 
27 | Cc1nnc(NC(=O)Nc2ccc(Cl)c(Cl)c2)s1 | 25.9 µM [rising, single point] | 
28 | COc1ccccc1CN1CCc2c([nH]c3ccccc23)C1 | 28.2 µM [rising, partial curve, poor fit] | 
29 | O=c1[nH]c2cc3c(cc2cc1CN(Cc1ccccc1)Cc1nnnn1Cc1ccco1)OCCO3 | 35.5 µM [falling, single point] | 
30 | Cc1[nH]c2ccccc2c1C(=O)CSc1nc2ccccc2[nH]1 | 3.98 µM [rising, partial curve, poor fit] | 
31 | CCC(C)(C)n1nnnc1C(c1ccncc1)N1CCC(Cc2ccccc2)CC1 (stereo not drawn) | 0.206 µM [rising, full curve, poor fit] | 
32 | Cc1cccc(N=C2NC(=O)/C(=C/c3cccs3)S2)c1 | 16.4 µM [falling, partial curve] | 
33 | CNC[C@H]1Oc2ccc(NC(=O)Nc3ccccc3)cc2CC(=O)N([C@H](C)CO)C[C@H]1C | 23.1 µM [rising, partial curve, poor fit] | 
34 | COc1ccc(S(=O)(=O)N2CCN(C(=O)c3cc(-c4ccccc4OC)n[nH]3)CC2)cc1 | 7.94 µM [falling, partial curve] | 
35 | CN(C)c1ccc(NC(=O)Nc2cccc3ccccc23)cc1 | 11.2 µM [falling, partial curve] | 
36 | CCCCCc1nnc(NC(=O)c2ccc3nc[nH]c3c2)s1 | 11.6 µM [rising, partial curve, poor fit] | 
37 | CCc1ccc(OCCNC(=O)c2ccccc2SCc2ccc(F)cc2)cc1 | 20 µM [falling, partial curve, poor fit] | 
38 | CN(C)c1nc(C=C(C#N)C#N)c(Cl)n1-c1ccc(F)cc1 |  | 25.1 µM [falling, single point]
39 | O=C1/C(=C/c2ccccc2)N=C(N2CCOCC2)N1c1cccc(Cl)c1 | 4.61 µM [rising, partial curve] | 
40 | NC(=S)Nc1cnc2ccccc2c1 | 29.1 µM [rising, single point] | 
41 | CCc1ccccc1NC(=S)NC1CC2CCC(C1)N2Cc1ccc(F)cc1 (stereo not drawn) | 15.8 µM [falling, single point] | 
42 | O=C(CCNS(=O)(=O)c1cccs1)N1CCN(c2cccc(C(F)(F)F)c2)CC1 | 6.51 µM [falling, partial curve, poor fit] | 

Exported with tabs: 11 of the compounds above.
Row	Structure (SMILES)	AC50 [1]	AC50 [2]
8	CCCSc1nc(=O)n2cccc(C)c2n1	13 µM [rising, partial curve]	20.6 µM [falling, partial curve]
9	C=CC(=O)N(CCC)C(c1ccccc1)c1ccccc1OC (stereo not drawn)	7.31 µM [falling, partial curve, poor fit]	
10	CCc1ccc(-c2csc(-c3c[nH]c4ccccc34)n2)cc1	2.91 µM [rising, partial curve, poor fit]	
11	O=C(Nc1nnc(-c2ccco2)o1)c1ccc(Cl)s1	12.6 µM [falling, partial curve]	
12	Cc1cc(C)c(NS(=O)(=O)c2ccc3c(c2)n(C)c(=O)n3C)c(C)c1	7.08 µM [rising, full curve]	
13	CCN(CC)CCOc1cccc(C(C)C)c1	10.3 µM [rising, partial curve, poor fit]	
14	CCC(Sc1nc(=O)cc(N)n1-c1cccc(C)c1)C(=O)Nc1cc(C)on1 (stereo not drawn)	0.651 µM [falling, full curve, poor fit]	
15	Cc1ccc(CNc2ccc([N+](=O)[O-])cc2C(N)=O)cc1	18.4 µM [rising, partial curve]	
16	O=C(COC(=O)CCCN1C(=O)c2cccc3cccc(c23)C1=O)Nc1ccc(Cl)cc1	32.6 µM [rising, partial curve, poor fit]	
17	O=C(N/N=C/c1ccc[nH]1)c1ccccc1OCc1ccc(F)cc1	17.8 µM [rising, partial curve, poor fit]	
18	Cc1cc(C(=O)NN=C(CCC(=O)O)c2cccs2)c(C)o1	2.31 µM [falling, partial curve, poor fit]	

(cont.)

Row | Structure (SMILES) | AC50 [1] | AC50 [2]
43 | O=C(NC1CCCCCC1)C(Cc1ccccc1)n1cccc1 (stereo not drawn) | 8.91 µM [rising, partial curve, poor fit] | 
44 | COC(=O)C1=C(C)N(c2ccc(F)c(Cl)c2)C(=O)C1 | 5.17 µM [falling, full curve, poor fit] | 
45 | Nc1nnc(SCn2nnc3ccccc3c2=O)s1 | 17.8 µM [rising, single point] | 
46 | COc1ccc(NC(=O)c2oc3ccccc3c2CSC)cn1 | 7.08 µM [falling, partial curve, poor fit] | 
47 | NC(=O)c1cc2cc([N+](=O)[O-])ccc2oc1=O | 31.6 µM [rising, single point] | 
48 | CCN(c1ccccc1)S(=O)(=O)c1ccc(C(=O)N2CC(C)CC(C)C2)cc1 (stereo not drawn) |  | 25.9 µM [rising, partial curve, poor fit]
49 | CCOc1ccc(OCc2cccc(C(=O)N/N=C/c3cccnc3)c2)cc1 | 0.116 µM [rising, full curve, poor fit] | 
50 | CCOc1ccc(C(=O)CCN2CCCCC2)cc1 | 17.8 µM [falling, partial curve] | 
51 | COc1ccc(NS(=O)(=O)c2cc(NC(=O)c3cc(F)c(F)cc3Cl)ccc2N2CCOCC2)cc1 | 23.1 µM [rising, single point] | 
52 | N#C/C(=C\c1ccncc1)c1nc2ccccc2c(=O)[nH]1 | 3.55 µM [falling, partial curve] | 
53 | O=C(N/N=C/c1cccnc1)c1cc2ccccc2cc1O | 35.5 µM [falling, single point] | 
54 | CCCCCn1c(N2CCC(C(N)=O)CC2)nc2c1c(=O)[nH]c(=O)n2C | 0.501 µM [rising, full curve, poor fit] | 
55 | COc1ccc(-c2c[n+](CC(=O)OC3CC(C)CCC3C(C)C)c3n2CCC3)cc1 (stereo not drawn) | 12.6 µM [falling, partial curve] | 
56 | O=S(=O)(Nc1cc(Sc2cccc3cccnc23)c(O)c2ccccc12)c1ccccc1 | 29.1 µM [falling, single point] | 
57 | CCCOc1ccc(CCC(=O)O)cc1 | 6.31 µM [falling, single point] | 
58 | CC(C)(CNc1ccc(C(F)(F)F)cc1[N+](=O)[O-])N1CCOCC1 | 1.41 µM [rising, partial curve] | 
59 | Cc1cc(C)c(S(=O)(=O)Nc2ccccc2-c2ccccc2)c(C)c1 |  | 16.4 µM [rising, partial curve, poor fit]
60 | CCOC(=O)C1=C(C)NC(C)=C(C(=O)OCC)C1C(=O)OCC(=O)N1CC(C)OC(C)C1 (stereo not drawn) | 20.6 µM [rising, single point] | 20.6 µM [falling, partial curve, poor fit]
61 | CN(C)S(=O)(=O)c1ccc(Cl)c(NC(=O)COC(=O)/C=C/c2cnc3ccccc3n2)c1 | 35.5 µM [rising, single point] | 
62 | CN(C)/C=C/C(=O)c1ccc2noc(-c3ccccc3)c2c1 | 10 µM [falling, partial curve] | 
